Measurements as given in article PMC10163288.
Some of the results follow.

B1: il2ra_site1_3nfp_normal_mot_HHH_b1_08723_000000044_0001_1_15_H_._HHH_b2_03161_0001_0000200008_0000001_0 (protein)
chain: SSSSDRSERLEELFRELFEAAQRNDPELIEELAKELLELAEENNSKTLFRSAKFALEWVNSSSSS
B2: il2ra_site1_1z92_sap_18_mot_HHH_b1_01497_af2_000000270_0001_43_57_H_._ec49256d0a76a2d41f5dd9f5c380ddc2_0001_1_af2_0001_0000400025_0000001_1_0001_af2pred_0001_af … (protein)
chain: SSSSSAELALEANRLLHEGNPEKVEEVLEEIRRYAEEYQSRTLERLLELLEEALRELEEDSSSSS
B3: il2ra_site1_1z92_sap_10_mot_919c246ba0fc10ef4578bdc7f1052ff8_0001_af2_000000062_0001_37_52_H_._HHH_b1_05429_0001_0000400029_0000001_1_0001 (protein)
chain: SSSSSAKEYVEEMARLKYEAYEKTGDEKAREWLEFMLRFAEVRGNEELREFVEKLIEELHRSSSS
B4: il2ra_site1_3nfp_sap_15_mot_HHH_b1_00306_000000144_0001_20_36_H_._HHH_b2_04392_af2_0001_0001900099_0000001_0_0001 (protein)
chain: SSSSDRADEFAEEMARQAHEHGNRKFLERLLEQAEWMAERSRDPKIQELAEEIEELLERLRSSSS
B5: il2ra_site1_2b5i_sap_15_mot_HHH_b2_00070_000000071_0001_43_56_H_._HHH_b2_04717_0001_0000600030_0000001_0_0001_af2pred_0001_af2pred (protein)
chain: SSSSDEEFEEVIELYREASKLLRQGNREQARELLEEALKIAEEAGDEVAAEDVKRILELLSSSSS
B6: il2ra_site1_2b5i_sap_9_mot_0e5a94e4a5addaac739760efb25f0f5d_0001_000000246_0001_18_32_H_._49678f45da0a336f03cbe5a93813d6e2_0001_1_0001_0000100008_0000001_0_0001 … (protein)
chain: SSSSEERELIRELLEEARRLREEGRPEEARRLLRMALKLARKHNDEELIAEVEALLEELESSSSS
B7: il2ra_site1_3nfp_normal_mot_HHH_b2_06110_000000263_0001_43_57_H_._HHH_b1_04304_af2_0001_0000100002_0000001_0_af2pred_0001_af2pred_1_swapped (protein)
chain: SSSSNDIIRESERIAKEVQRLLREGDQERAEELIEELEEIAKKANSRAAKIFVEELKKKASSSSS
B8: il2ra_site1_2b5i_normal_mot_HHH_b2_04910_000000118_0001_1_19_H_._HHH_b1_05819_af2_0001_0000400035_0000001_0_af2pred_dldesign_0_af2pred (protein)
chain: SSSSSDKEEALRLFLEANEAKQAGKAEEARRLLLEAERLARAAGANTLLRIIQSALENLESSSSS
B9: il2ra_site1_2b5i_sap_9_mot_HHH_b2_04131_000000217_0001_1_16_H_._HHH_b1_08611_0001_0000700044_0000001_0_0001_af2pred_dldesign_0_af2pred (protein)
chain: SSSSSEFRELVKKAEEAYKKATTDEKYDKIDELYNEALRLHREGKKEEAKELLKEAISLTKSSSS
B10: il2ra_site1_2b5i_normal_mot_HHH_b1_02217_af2_000000060_0001_42_56_H_._HHH_b2_07752_af2_0001_0000100007_0000001_0_af2pred_dldesign_0_af2pred (protein)
chain: SSSSDPLWDELDRLASEAFRLKRAGKREEAKEVLEKALKIAEKLKDEKVLEEIKYLLEKISSSSS
B11: il2ra_site2_3nfp_sap_13_mot_HHH_b2_01155_000000159_0001_38_52_H_._HHH_b1_01951_0001_0000700024_0000001_0_0001 (protein)
chain: SSSSDKSEEYLRIAVLIIERALEAGDEESARNMLEVALAAAEDNGDEELEERLEELDRLVNSSSS
B12: il2ra_site2_2erj_sap_16_mot_HHH_b2_05976_000000049_0001_1_19_H_._HHH_b2_00193_0001_0000100006_0000001_0_0001 (protein)
chain: SSSSSEEIERVEELARELLEELERQGDRLAVEVLKAAIEDLEETGNPALAETLEALLRFLSSSSS
B13: il2ra_site1_1z92_sap_25_mot_HHH_b2_03816_af2_000000009_0001_40_54_H_._HHH_b1_06008_0001_0001000050_0000001_0_0001_af2pred_0001_af2pred (protein)
chain: DEEAEEVVEQAEEDPELRKRLEEYLEEVAKLPPRNAKVYLKMLLKKAKEGDPAALELLLSLFEEG
B14: il2ra_site1_3nfp_sap_12_mot_HHH_b2_07963_000000178_0001_1_20_H_._85c313cd81705ef13366c17583bb23ef_0001_0001_0000300011_0000001_0_0001 (protein)
chain: DDEESLKRSVELAAEVAGVPSVEVEEHNGKYHVTIEGDDIQARHVAKLIERAAKAFNIDLEVEVE
B15: il2ra_site2_3nfp_normal_mot_HHH_b2_06150_000000217_0001_39_53_H_._HHH_b2_06562_af2_0001_0000100007_0000001_1 (protein)
chain: SSSSSEEEEEVRELLKQAERAREEGDEEELRRLRARAVEIAYEARDPRLFFLVAEVLFKLASSSS
B16: il2ra_site1_2b5i_sap_13_mot_HHH_b1_03378_af2_000000136_0001_23_39_H_._b8b0fbdce6c3aad50316cb256bd66e7b_0001_1_0001_0000100005_0000001_0_0001_af2pred_dldesign_0_ … (protein)
chain: SSSSSPVSKKIFELIKEAEKLKKEGKEEEAKKLLEEALKLAQENNRPSLARFVQAMLDQLESSSS
B17: il2ra_site2_3nfp_normal_mot_HHH_b2_07083_af2_000000083_0001_42_56_H_._HHH_b2_00762_0001_0000200003_0000001_0_af2pred_0001_af2pred (protein)
chain: SSSSDTEERVEKLLEEARRYREEGDEEEVQRLLAEASEVAFENNNPELLLLIARVLLELLGSSSS
B18: il2ra_site2_3nfp_sap_22_mot_HHH_b2_02437_000000052_0001_42_56_H_._HHH_b1_05931_af2_0001_0000400011_0000001_0_0001 (protein)
chain: SSSSNKAEEYVRIVLAVARLAAKAGDPEAAEKSLRLALSAARQNGNEELEELLEELLKELSSSSS
B19: il2ra_site2_3nfp_normal_mot_HHH_b2_06150_000000217_0001_39_53_H_._ef5a302c84959cb026c21f894a3b1351_0001_0001_0000200021_0000001_0_af2pred_0001_1_af2pred_swapped (protein)
chain: SHESLEALEKVHRRNPEVSAALLALLAEAFRKDPEIRKELLELIRELVERGVPPEEILKLVEEVT
B20: il2ra_site1_1z92_normal_mot_934a834d9b8b770824478def2ff2f329_0001_af2_000000088_0001_15_30_H_._83efa5f199d74a44323d7a465a177682_0001_af2_0001_0000100004_0000001 … (protein)
chain: SLEEEIEQALKEAGVPPSVIRAIKRIIREAEEHGIPPEAIKRDVLKFLEFYNEELAERVEELLKK
B21: il2ra_site2_2erj_normal_mot_HHH_b2_05804_000000098_0001_44_58_H_._HHH_b1_07085_0001_0000200012_0000001_0 (protein)
chain: SSSSSSEEEFWERVARLLAELSHVDEEEAEELLEEARRLAEELGSPFLERYVEFARRAHSSSSSS
B22: il2ra_site2_2erj_normal_mot_HHH_b1_03107_000000098_0001_39_52_H_._HHH_b1_03170_0002_0000300004_0000001_0 (protein)
chain: SSSSSEYEEVARLQAEVLELFKEGDPEEAERLLEEILEKLRELGDETLIRYVEFALRDIRRSSSS
B23: il2ra_site2_2erj_sap_33_mot_8abaa092650c7ec0dcd26c08d75eddca_0001_1_000000067_0001_33_49_H_._HHH_b2_05321_af2_0001_0000100005_0000001_0_0001 (protein)
chain: SSSSSEELHRLFELANLLMHLVARGDREEFEHVLEEAEELAERANSDNAKEFLERLKKELSSSSS
B24: il2ra_site2_2erj_normal_mot_HHH_b1_03107_000000098_0001_39_52_H_._HHH_b2_08306_0001_0000100003_0000001_0 (protein)
chain: SSSSSSFKELWEAVAELLAKAAHIKDEEEVERLLEEAKRIAEELGNEILERYIEYARRDHSSSSS
B25: il2ra_site2_2erj_normal_mot_HHH_b1_02968_000000142_0001_22_39_H_._HHH_b2_03682_af2_0001_0000100008_0000001_0 (protein)
chain: SSSSSDYREEVRELLEEAEEAYENGDLELVYRLAVEAARVASENQDEELQEEIWRVVEELSSSSS
B26: il2ra_site2_3nfp_sap_24_mot_HHH_b2_02437_000000052_0001_42_56_H_._HHH_b2_08341_0001_0000200012_0000001_0_0001_af2pred_0001_1_af2pred_swapped (protein)
chain: SSSSSSSEEEEQIEELLERAEHTEDEAKRLILLAEALLLALEARDPELERRVKELARRLSSSSSS
B27: il2ra_site2_2erj_sap_21_mot_HHH_b2_02303_000000050_0001_43_56_H_._HHH_b1_05172_0001_0000200005_0000001_0_0001_af2pred_0001_1_af2pred_swapped (protein)
chain: SSSSSSDLVKAFVRRLLEEAEKIPDPEERKRWLKLAELAARRWNDEEAEEEVERVQEELGSSSSS
B28: il2ra_site1_2b5i_normal_mot_22370d59370c406a0c205a431f537cfa_0001_af2_000000027_0001_1_31_H_._HHH_b2_03062_0001_0000200012_0000001_0 (protein)
chain: SSSSDNELVRAATRIVWKLRRELNLSREEAQLLHRVAAELVDEGVSPEELEEILREYAEEISSSS
B29: il2ra_site2_3nfp_sap_21_mot_HHH_b1_04032_000000208_0001_43_56_H_._HHH_b2_05536_af2_0001_0000100001_0000001_0_0001_af2pred_0001_af2pred (protein)
chain: SSSSSSEEVEELLEQAKELYKRGDEEEVEEVLLKAASLAAELNDFELFAEVSALFEKLLSSSSSS
B30: il2ra_site2_2erj_sap_36_mot_HHH_b1_08325_af2_000000089_0001_23_40_H_._HHH_b2_06241_af2_0001_0000700012_0000001_0_0001 (protein)
chain: SSSSSEEEEEVIRLIAEAIELAHEGDEEEARELLEEALRIAREINNETLREYIERALKHLKSSSS
B31: il2ra_site2_3nfp_sap_24_mot_ems_3hM_287_af2_000000177_0001_46_64_H_._HHH_b1_01176_af2_0001_0000700010_0000001_0_0001 (protein)
chain: SSSSDEAEEYIRAALALLERAIELGDEEAFEEHFELVEKAIKDNNNEELEEILKELQKKFESSSS
B32: il2ra_site2_2erj_sap_16_mot_HHH_b1_00941_000000060_0001_45_58_H_._HHH_b2_03642_0001_0000700020_0000001_0_0001 (protein)
chain: SSSSDEELRELFELANELMHAYARNNPELVEEIAREARELAERLNSPNAEEVIEWILEELSSSSS
B33: il2ra_site1_1z92_normal_mot_HHH_b1_00499_000000281_0001_1_17_H_._HHH_b1_01522_af2_0001_0000200033_0000001_0 (protein)
chain: SSSSSKEQAAELIVRILVEIAGLSEEQEEALEELLKELLERGVDFLEIIKRLDELARRLESSSSS
B34: il2ra_site2_3nfp_normal_mot_HHH_b2_05281_000000198_0001_39_56_H_._HHH_b2_02030_0001_0000300023_0000001_0 (protein)
chain: SSSSSDREEVEELLERAEQSDDPEEIRRLLAEATEIAYETRNSELFYLIAEVAFRLEQGSSSSSS
B35: il2ra_site1_1z92_normal_mot_HHH_b2_06133_af2_000000132_0001_1_18_H_._HHH_b2_03205_0001_0000100004_0000001_0 (protein)
chain: SSSSSDEEIRERVEELLEELREIEDPREWSKVLREALRLAAELRDPELRRLIHEVVRELASSSSS
B36: il2ra_site1_2b5i_normal_mot_f5ff40796168375b462bec8614a1db4a_0001_1_000000138_0001_53_65_H_._HHH_b1_01646_0001_0000100001_0000001_0 (protein)
chain: SSSSDEVTEDLLRAFLEEAEELLENGNPKEARSILHLARATARRRGNELLEEVERLLKEVRSSSS
B37: il2ra_site2_3nfp_sap_18_mot_HHH_b2_05281_000000198_0001_39_56_H_._4949e777cf0084a35dc4178a1d33e300_0001_0001_0000100013_0000001_0_0001 (protein)
chain: SSSSDAEEYVKAALALLKEAAERKDEEAFEKMFRLIELAIEDNNDEEAQRLLEELERLFNSSSSS

Target: il2ra, P01589
Assay: yeast display titration

Apparent Kd, inactive:
B1 no binding seen
B2 no binding seen
B3 no binding seen
B4 no binding seen
B5 no binding seen
B6 no binding seen
B7 no binding seen
B8 no binding seen
B9 no binding seen
B10 no binding seen
B11 no binding seen
B12 no binding seen
B13 > 968 nM
B14 no binding seen
B15 no binding seen
B16 > 664 nM
B17 no binding seen
B18 no binding seen
B19 no binding seen
B20 no binding seen
B21 no binding seen
B22 no binding seen
B23 no binding seen
B24 no binding seen
B25 no binding seen
B26 no binding seen
B27 no binding seen
B28 no binding seen
B29 no binding seen
B30 no binding seen
B31 no binding seen
B32 no binding seen
B33 no binding seen
B34 no binding seen
B35 no binding seen
B36 no binding seen
B37 no binding seen

Three neighbouring entries already listed, quoted:
Apparent Kd, inactive:
B14 no binding seen
B15 no binding seen
B16 > 664 nM
